Measured values from publication PMC3776556, “Crystal structures of the CPAP/STIL complex reveal its role in centriole assembly and human microcephaly” (eLife, 2013).
No constants are given. Whether binding was seen depends on the method and setting. Binding seen in cells or lysates may run through a third protein. Some entries that bind do so weakly or less than the wild type. Tags and fused reporters may be left off the sequences shown.

Target: T1, C. elegans SAS-5 N-terminal domain (aa 1–202)-6xHis (C. elegans) (UniProt Q20010)
T1 sequence: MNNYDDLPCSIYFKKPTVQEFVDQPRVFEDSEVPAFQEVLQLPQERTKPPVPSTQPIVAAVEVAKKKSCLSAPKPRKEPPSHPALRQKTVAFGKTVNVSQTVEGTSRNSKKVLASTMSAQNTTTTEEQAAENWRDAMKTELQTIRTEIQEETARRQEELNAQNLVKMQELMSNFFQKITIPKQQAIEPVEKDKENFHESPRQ
Assay: pull-down; SAS-5-6xHis fragments on Ni-NTA beads (bait), ^35S-labelled in vitro translated SAS-4 fragments (prey); 25 mM HEPES, 100 mM NaCl, 20 mM imidazole, 1 mM DTT, 10% sucrose, 0.02% Tween-20, pH 7.4, 4°C; autoradiography; only the target purified

B1: C. elegans SAS-4, full-length, in vitro translated (protein, UniProt P34402 1-808)
chain: MASDENIGADGEQKPSRPFLRKGQGTARFRMPRNNKTSAGAPPTSELSSASSPSINVPRFSLSNALPNSARTVDSGISNEDETRPPTTASLPMDQPSLSSSPENRLNPAPSVAEEHGHSGQHAEEEEDNDTDEVSAMPSFVPDEPSTLVNSDHELSDDALKYKNAAAEFKAFERRMDSMRSASTITTSLATPSSCAPSNSSEPPTRSTPIMNDLGVGPNNHNWPSSMQELSGISLETPQARPLGSNRINQLVRSEAQTGISLLQHHERPTVTAPLRRNDMMNSSRQNPQNGNVQDENRPEHVYDQPIHVPGSSLDRQKLEIEIRRHRNLNIQLRDTIAHLDYAEESVHTTKRQLEEKISEVNNFKKELIEEFKKCKKGVEEEFEKKFEKIKEDYDELYEKLKRDQRDLERDQKILKKGTGERNKEFTETIATLRDKLRASETKNAQYRQDIRVRDEKLKKKDEEIEKLQKDGNRLKSTLQTLEKRVKQLRTEKERDDKEKEMFAKVAMNRKTSNPVPPVLNQSVPISITSNGPSRHPSSSSLTTFRKPSTSNRERGVSWADEPNEQSLEAVPQEFLMMPVKEMPGKFGKCTIYRDSLGETSKVTDTIANGLLFEYSNGDLRWVNRQNAVNIYISAVDKTVRIDLPTYNISIIHTFQRQVEVLRPGNNITLISIKRREVRTDLIYQNGMYKTEIFNRDGRYVTKDFSNQEVSRKYNPGTHTYRDNQCRYVLVTDYNDFELVEPEFRLRWYQGDPTGLNNQYILKIIGRPECSEKTLRLEVNLSTCEGTLETAEMIGDKRRKTTLFQWKK
modifications: ^35S-Met labelling
B1 was tested. Which binding did it give?
The binding was “binds”.
